Measurements reported in paper PMC3814766.
Results are given in words; binding and its absence hold for the method and conditions named. Binding seen in cells or lysates may run through a third protein. Some binding calls cover weakened binding; strength is not graded here.

Protein sequences, listed by entry. Tags and fused reporters are not part of them.
UniProt P03146: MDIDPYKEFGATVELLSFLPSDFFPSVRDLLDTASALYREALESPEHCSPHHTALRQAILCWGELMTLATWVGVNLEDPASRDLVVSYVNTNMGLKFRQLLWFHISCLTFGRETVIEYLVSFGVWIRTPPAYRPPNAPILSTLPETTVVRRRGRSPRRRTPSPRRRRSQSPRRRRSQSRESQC
UniProt Q9GZX7: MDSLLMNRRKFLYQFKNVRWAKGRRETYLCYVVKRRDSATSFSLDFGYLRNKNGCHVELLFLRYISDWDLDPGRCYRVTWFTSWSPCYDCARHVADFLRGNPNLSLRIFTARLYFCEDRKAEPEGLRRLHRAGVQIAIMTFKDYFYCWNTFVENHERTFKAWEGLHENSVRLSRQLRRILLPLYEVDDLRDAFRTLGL

Molecular target: HBV core protein (hepatitis B virus, genotype D (HepAD38 cells)) (UniProt P03146)
Assay: co-IP; HepAD38 cells transduced with AID-expressing vector were lysed and immunoprecipitated with anti-core antibody or control normal IgG; AID detected by immunoblot

activation-induced cytidine deaminase (from UniProt Q9GZX7 1-198) (enzyme)
binding: binds
